Measured values: patent US5719128A (Akzo Nobel N.V., priority 1991, dated 1998)

Experiment: general procedure: solution-phase peptide synthesis; DCC/HOBt
Conditions: coupling step, acetate

In the case of “Z-Arg(Z)2 -psi[CO--CH2 ]-Gly-phe-Lys(Boc)OtBu”, the step yield is reported as 85%.
